Assay results: patent publication US7070969 (UNIVERSITY OF QUEENSLAND, dated 2006)
Results are given in words; binding and its absence hold for the method and conditions named. Some results given as binding are weak or reduced against the parent protein; the word gives no strength.

Sequences of proteins named here, by UniProt entry; tags and fusion partners are left off. Residues count along the entry.
UniProt P00747, residues 97-810: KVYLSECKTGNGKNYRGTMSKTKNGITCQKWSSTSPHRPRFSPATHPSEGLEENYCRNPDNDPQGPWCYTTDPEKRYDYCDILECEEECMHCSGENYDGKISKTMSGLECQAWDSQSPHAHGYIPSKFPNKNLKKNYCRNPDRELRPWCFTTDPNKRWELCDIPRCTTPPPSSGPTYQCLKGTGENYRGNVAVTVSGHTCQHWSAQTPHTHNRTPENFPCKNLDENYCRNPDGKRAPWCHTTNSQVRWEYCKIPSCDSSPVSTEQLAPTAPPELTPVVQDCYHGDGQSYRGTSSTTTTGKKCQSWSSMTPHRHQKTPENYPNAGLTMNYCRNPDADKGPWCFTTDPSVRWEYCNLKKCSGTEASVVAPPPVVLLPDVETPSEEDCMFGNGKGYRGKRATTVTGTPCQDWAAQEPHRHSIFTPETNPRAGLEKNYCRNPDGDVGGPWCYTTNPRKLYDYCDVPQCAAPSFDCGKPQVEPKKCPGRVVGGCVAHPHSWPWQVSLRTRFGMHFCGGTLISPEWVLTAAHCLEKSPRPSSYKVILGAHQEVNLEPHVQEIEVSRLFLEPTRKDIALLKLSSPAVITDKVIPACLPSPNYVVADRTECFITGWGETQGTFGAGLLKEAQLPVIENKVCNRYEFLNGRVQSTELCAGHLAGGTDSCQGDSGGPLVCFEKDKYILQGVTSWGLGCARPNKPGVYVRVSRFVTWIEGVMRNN

Key:
Human plasmin (human) [1] = target: Human plasmin (human) (UniProt P00747); assay: plasmin inhibition kinetics
Human plasmin (human) [2] = target: Human plasmin (human) (UniProt P00747); assay: enzyme specificity; method not described

B1: Textilinin 1 (other)
chain: KDRPDFCELPADTGPCRVRFPSFYYNPDEKKCLEFIYGGCEGNANNFITKEECESTCAA
notes: also called Txln 1
binding (Human plasmin (human) [1]): binds | binding (Human plasmin (human) [2]): binds

B2: Textilinin 2 (other)
chain: KDRPELCELPPDTGPCRVRFPSFYYNPDEQKCLEFIYGGCEGNANNFITKEECESTCAA
notes: also called Txln 2
binding (Human plasmin (human) [1]): binds | binding (Human plasmin (human) [2]): binds
